Laboratory results reported in the supplement of paper PMC9233669.
This sample is rich in variants without activity.

Assays:
biotinyl-Leu-oxazolone = assay: self-aminoacylation, catalytic enhancement (BLO) (fold over background); higher = more active; k-Seq, kA / k0A0; sequences stand for … in GGGAAUGGAUCCACAUCUACGAAUUC…UUCACUGCAGACUUGACGAAGCUG
Outline: (§1)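 Mutagenized RNA pools with a 21-nt variable region (0.43 μM) were reacted with each biotinyl-aminoacyl-oxazolone at 2–1250 μM for 90 minutes at room temperature, in 50 μL HEPES/NaCl/KCl/MgCl2/CaCl2 buffer containing 5% acetonitrile at pH 6.9–7.0. RNA captured on streptavidin was quantified by triplicate qPCR and by Illumina sequencing. The fraction reacted for each sequence was fit to a pseudo-first-order model with bootstrapping, and catalytic enhancement is the median kA divided by the uncatalyzed rate, taken as the low-activity peak of a bimodal Gaussian fit.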

biotinyl-Met-oxazolone = assay: self-aminoacylation, catalytic enhancement (BMO) (fold over background); higher = more active; k-Seq, kA / k0A0; sequences stand for … in GGGAAUGGAUCCACAUCUACGAAUUC…UUCACUGCAGACUUGACGAAGCUG
Outline: as §1

biotinyl-Ile-oxazolone = assay: self-aminoacylation, catalytic enhancement (BIO) (fold over background); higher = more active; k-Seq, kA / k0A0; sequences stand for … in GGGAAUGGAUCCACAUCUACGAAUUC…UUCACUGCAGACUUGACGAAGCUG
Outline: as §1

biotinyl-Val-oxazolone = assay: self-aminoacylation, catalytic enhancement (BVO) (fold over background); higher = more active; k-Seq, kA / k0A0; sequences stand for … in GGGAAUGGAUCCACAUCUACGAAUUC…UUCACUGCAGACUUGACGAAGCUG
Outline: as §1

Sequence | self-aminoacylation (biotinyl-Leu-oxazolone) | self-aminoacylation (biotinyl-Met-oxazolone) | self-aminoacylation (biotinyl-Ile-oxazolone) | self-aminoacylation (biotinyl-Val-oxazolone)
AAGUUUCCUAAUACUCGCAAG [Fam3.1 aminoacylation ribozyme variant] | 0.891 | 1 | 0.862 | 0.889
AAGUUUGCAAAUAGUCUCAAG [Fam3.1 aminoacylation ribozyme variant] | 0.747 | 1.12 | 0.987 | 0.772
AAGUUUGCGAAGAGUCGCAAG [Fam3.1 aminoacylation ribozyme variant] | 1.04 | 0.955 | 1.36 | 1.21
AAGUUUGCUGAUACUCGCAAG [Fam3.1 aminoacylation ribozyme variant] | 0.885 | 0.744 | 1.11 | 0.897
AAGUUUGGUAAUAGUCGCAAG [Fam3.1 aminoacylation ribozyme variant] | 1.25 | 1.22 | 1.32 | 1.19
AAUUCUGCUAAUAGUCGCAAG [Fam3.1 aminoacylation ribozyme variant] | 1.61 | 1.81 | 1.88 | 1.56
ACGUUUGCUAAUAGUCGCAAG [Fam3.1 aminoacylation ribozyme variant] | 1.69 | 1.87 | 1.7 | 1.49
AGUACCCUGGUCCUCGAGUGA [Fam2.1 aminoacylation ribozyme variant] | 5.58 | 4.14 | 2.7 | 2.81
AGUGCCCUGGUCAUCGAGUGA [Fam2.1 aminoacylation ribozyme variant] | 14.5 | 12.5 | 6.36 | 5.79
AUACUUCAAACAAUAGGUCUG [Fam1A.1 aminoacylation ribozyme variant] | 0.835 | 0.812 | 1.08 | 0.923
AUACUUCAAACAAUCGGUCGG [Fam1A.1 aminoacylation ribozyme variant] | 1.18 | 1.07 | 1 | 0.883
AUCACCCUGGUCAUCGAAUGA [Fam2.1 aminoacylation ribozyme variant] | 1.29 | 1.13 | 1.26 | 1.41
AUCACCCUGGUGAUCGAGUGA [Fam2.1 aminoacylation ribozyme variant] | 8.91 | 7.25 | 3.57 | 3.87
AUGUUUGCUAAUAGUCGCAAG [Fam3.1 aminoacylation ribozyme variant] | 1.29 | 1.48 | 1.51 | 1.4
AUUACAGUGGUCAUCGAGUGA [Fam2.1 aminoacylation ribozyme variant] | 1.44 | 1.87 | 1.75 | 1.76
AUUACCAUGGUCAUCGAGGGA [Fam2.1 aminoacylation ribozyme variant] | 1.65 | 1.94 | 1.75 | 1.46
AUUACCCAAGUCAUCGAGUGA [Fam2.1 aminoacylation ribozyme variant] | 9.5 | 8.57 | 4.5 | 4.46
AUUACCCUGGUGAUCCAGUGA [Fam2.1 aminoacylation ribozyme variant] | 9.64 | 9.84 | 4.33 | 4.65
AUUACCCUGGUGAUCGCGUGA [Fam2.1 aminoacylation ribozyme variant] | 4.38 | 4.66 | 3.45 | 4.19
AUUACCGUGGUCAUCGCGUGA [Fam2.1 aminoacylation ribozyme variant] | 21.5 | 17.7 | 8.94 | 11
AUUACCUUGGUAAUCGAGUGA [Fam2.1 aminoacylation ribozyme variant] | 8.08 | 7.66 | 3.52 | 3.87
AUUCACCUACGUCAGCGGGUG [Fam2.2 aminoacylation ribozyme variant] | 6.17 | 4.72 | 2.95 | 2.71
AUUCACCUAGGGCAUUGGGUG [Fam2.2 aminoacylation ribozyme variant] | 8.05 | 6.54 | 3.74 | 3.49
AUUCACCUAGGUCAUCCGGUG [Fam2.2 aminoacylation ribozyme variant] | 8.38 | 6.35 | 4.67 | 4.69
AUUCACCUUGGUCAUCGGGUC [Fam2.2 aminoacylation ribozyme variant] | 1.15 | 1.32 | 1.2 | 1.58
AUUCACGUAGGUCAUCGGGUA [Fam2.2 aminoacylation ribozyme variant] | 2.95 | 3.16 | 2.9 | 3.72
AUUCCCCUAGGUCAGCGGGUG [Fam2.2 aminoacylation ribozyme variant] | 14.1 | 11.1 | 8.05 | 7.83
AUUCGCCUAGGUCAUCGGAUG [Fam2.2 aminoacylation ribozyme variant] | 0.903 | 0.94 | 0.941 | 1.07
